The other results are listed elsewhere or left out. Shown are side measurements of this screen, not its main read-out; they come without a call. Compounds called inactive in the main read-out are mostly missing here. Words in brackets tell the shape of the fitted curve; partial curves, single points and poor fits give uncertain potencies.
Assay: qHTS Assay for Modulators of Lamin A Splicing
Details: HeLa LMNA splicing GFP/RFP minigene ratio, 48 h
Outline: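 S3 HeLa cells stably expressing lamin A-EGFP splicing minigene plus DsRed2, 600 cells/well, 48 h compound exposure at 37C. Laser-scanning cytometry; analysed as GFP (500-530 nm)/RFP (575-640 nm) total intensity ratio; 0.5% DMSO vehicle.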

[1] = measured here: GFP splicing reporter channel
[2] = measured here: RFP viability control channel

Compound	AC50 [1]	AC50 [2]
O=c1c2cnn(-c3ccccc3)c2ncn1Cc1ccccc1	22.4 µM [rising, single point]	20 µM [rising, partial curve]
Cc1cc(C(=O)NC(=S)Nc2cccc(NC(=O)C(C)C)c2)ccc1[N+](=O)[O-]	–	22.4 µM [rising, partial curve]
CCc1ccccc1NC(=O)c1ccccc1Sc1ccc([N+](=O)[O-])cc1Cl	–	0.0501 µM [rising, full curve, poor fit]
O=C(NCC(c1ccc2c(c1)OCO2)N1CCOCC1)c1cccc(Cl)c1 (centres undefined)	7.94 µM [falling, partial curve, poor fit]	–
Cc1ccc2nc(-c3ccc(SCC(=O)Nc4nnc(C)s4)nc3)[nH]c2c1	–	1.58 µM [rising, full curve, poor fit]
CCOC(=O)C1(Cc2cccc(OC)c2)CCN(C(C)COC)CC1 (centres undefined)	1 µM [falling, single point]	0.282 µM [falling, full curve, poor fit]
COc1ccccc1OCC(=O)NCCSCc1ccc(Cl)cc1	11.2 µM [rising, single point]	35.5 µM [rising, single point]
CCN(c1ccccc1)S(=O)(=O)c1ccc(F)c(C(=O)O)c1	–	8.91 µM [falling, full curve, poor fit]
CCC(C)NS(=O)(=O)c1ccc(S(=O)(=O)N(CCc2ccc(OC)c(OC)c2)Cc2cccs2)cc1 (centres undefined)	3.98 µM [rising, full curve, poor fit]	3.98 µM [rising, full curve]
COc1ccc(C)cc1-n1nnnc1SCc1nc2ccccc2c(=O)[nH]1	–	0.501 µM [falling, full curve, poor fit]
CSc1nnc(C)c(=O)n1COC(=O)/C=C/c1ccc2c(c1)OCO2	6.31 µM [rising, partial curve, poor fit]	–
O=C(Nc1cc(C(F)(F)F)ccc1Cl)c1nc2ccccc2nc1N1CCCCC1	4.47 µM [falling, full curve, poor fit]	–
COc1ccc(CCNC(=O)CSCc2ccc(Cl)cc2)cc1OC	–	17.8 µM [rising, single point]
O=C(Cn1c(=O)nc(-c2ccccc2)c2ccccc21)NCc1ccc(Cl)cc1	5.62 µM [falling, partial curve]	–
Cc1cc(C)c(S(=O)(=O)N2CCCCC2)cc1N(C)S(=O)(=O)c1ccc(Cl)cc1	11.2 µM [rising, partial curve, poor fit]	15.8 µM [rising, single point]
COc1c(F)c(F)c(C(=O)Nc2ccc(-c3nc4ccccc4[nH]3)cc2)c(F)c1F	0.02 µM [falling, full curve, poor fit]	–
Cc1ccc(N=C2NC(=O)/C(=C/c3cccs3)S2)cc1C	0.0316 µM [rising, full curve, poor fit]	–
CCCOC(=O)CSC1=C(C#N)C(c2ccccc2Cl)CC(=O)N1 (centres undefined)	–	35.5 µM [rising, single point]
Cc1nn(Cc2ccccc2)c(C)c1NC(=O)CSc1nc2c(c(C(F)(F)F)n1)CCc1ccccc1-2	–	12.6 µM [rising, single point]
CCN(CC)S(=O)(=O)c1ccc(N(C)Cc2ccc(C(F)(F)F)cc2)nc1	12.6 µM [rising, single point]	15.8 µM [rising, single point]
CC[N+](C)(CC)CCOC(=O)C1c2ccccc2Oc2ccccc21	–	3.98 µM [falling, partial curve, poor fit]
COc1cc(NC(=O)Cc2nn(C)c(=O)c3ccccc23)cc(OC)c1OC	–	17.8 µM [rising, partial curve]
COc1ccccc1C/C(N)=N/O	–	3.98 µM [falling, full curve, poor fit]
CC(C)Cn1c2c(c(O)c(C(=O)Nc3nccs3)c1=O)CCCC2	–	10 µM [rising, single point]
c1ccc(Nc2nc(-c3cccnc3)nc3ccccc23)cc1	12.6 µM [falling, single point]	22.4 µM [falling, single point]
O=C(Nc1cccc(C(F)(F)F)c1)OCCN1CCN(Cc2ccccc2)CCC1=O	25.1 µM [rising, single point]	35.5 µM [rising, single point]

Compound	AC50 [1]	AC50 [2]
Cc1ccc(C(=O)c2ccc(CC(=O)O)n2C)cc1	0.00178 µM [falling, full curve, poor fit]	–
Cc1nc(N2CCN(Cc3ccc4c(c3)OCO4)CC2)nc2c1C(=O)CC(c1ccco1)C2 (centres undefined)	8.91 µM [rising, partial curve, poor fit]	14.1 µM [rising, partial curve]
Cc1cc(=O)n(CC(=O)Nc2ccc([N+](=O)[O-])cc2)c(-n2nc(C)cc2C)n1	–	35.5 µM [falling, partial curve, poor fit]
Cc1cc(C)c(S(=O)(=O)N2CCCCC2)c(C)c1N(C)S(=O)(=O)c1ccc(Cl)cc1	35.5 µM [rising, single point]	35.5 µM [rising, single point]
CCCCN(CCCC)CCCOC(=O)c1ccc(N)cc1	0.501 µM [falling, partial curve]	0.501 µM [falling, full curve]
CCc1cc(C(=O)NNC(=S)Nc2ccccc2C)cs1	–	31.6 µM [rising, single point]
CC(=O)Nc1cc2c(cc1NC(=O)Cn1nc(-c3ccccc3F)ccc1=O)OCCO2	8.91 µM [rising, partial curve]	11.2 µM [rising, partial curve, poor fit]
CN(C)c1ccc(-c2nccc(Nc3ccc(F)cc3)n2)cc1	11.2 µM [falling, partial curve]	17.8 µM [falling, partial curve]
Brc1ccc(C=Nc2ccc(Nc3ccccc3)cc2)s1	–	14.1 µM [rising, partial curve]
O=C(N/N=C/C1CC2CCC1C2)c1c[nH]c2ccccc12 (centres undefined)	0.0316 µM [falling, full curve, poor fit]	0.0316 µM [falling, full curve, poor fit]
O=C(Nc1cccc([N+](=O)[O-])c1)c1ccc2nc(N3C(=O)CCC3=O)sc2c1	35.5 µM [falling, single point]	35.5 µM [falling, single point]
CS(=O)(=O)NN1C(=O)c2ccccc2NC12CCCC2	0.282 µM [falling, full curve, poor fit]	0.0126 µM [falling, full curve, poor fit]
COc1ccccc1NC(=O)c1ccc(NC(=O)COC(=O)CCC2CCCC2)cc1	0.0251 µM [falling, full curve, poor fit]	0.2 µM [falling, full curve, poor fit]
CCNc1nc(NCC)nc(SCCOc2ccc(C)cc2)n1	14.1 µM [rising, partial curve]	15.8 µM [rising, partial curve]
CCOC(=O)N1CCC(NC(=O)CS(=O)(=O)Cc2nc(-c3ccccc3C)oc2C)CC1	17.8 µM [rising, single point]	35.5 µM [rising, single point]
O=C(NC1CCCCCCC1)c1ccccc1-c1ccccc1	22.4 µM [rising, partial curve, poor fit]	35.5 µM [rising, single point]
O=C(c1ccccc1Br)N1CCN(c2ccccc2)CC1	22.4 µM [falling, single point]	35.5 µM [falling, single point]
O=C(NC1CCCCC1)N1CCSC1=Nc1ccccc1	–	14.1 µM [rising, single point]
CCN(CC)S(=O)(=O)c1cc(NC(=O)COc2ccc(C#N)cc2OC)ccc1C	20 µM [rising, single point]	22.4 µM [rising, partial curve]
Cc1ccc(N(C)S(=O)(=O)c2ccc3[nH]c4c(c3c2)CCCC4)cc1	–	11.2 µM [rising, partial curve, poor fit]
Cc1ccc(CN/C=C/C(=O)c2ccc(Br)cc2)cc1	10 µM [rising, partial curve]	12.6 µM [rising, single point]
O=C(COc1ccccc1)NCc1ccc2c(c1)CCN2C(=O)c1ccccc1	10 µM [rising, single point]	10 µM [rising, partial curve]
CC(NC(=O)c1ccc(NC(=O)c2nsc3ccccc23)cc1)c1ccccc1 (centres undefined)	0.447 µM [rising, partial curve, poor fit]	0.501 µM [rising, partial curve, poor fit]
OC(COC(c1ccccc1)c1ccccc1)CN1CCN(c2ccccn2)CC1 (centres undefined)	15.8 µM [rising, single point]	22.4 µM [rising, single point]
COC(=O)c1ccc(C(=O)OC)c(NC(=O)CN(C)Cc2ccccc2)c1	12.6 µM [rising, partial curve]	12.6 µM [rising, partial curve]
N#Cc1cc(NC(=O)c2ccc(F)cc2)c(=O)n2c1[nH]c1ccccc12	–	11.2 µM [rising, single point]

Entries of single compounds as entered above.
`CCCCN(CCCC)CCCOC(=O)c1ccc(N)cc1` is listed as AC50 [1]: 0.501 µM [falling, partial curve]; AC50 [2]: 0.501 µM [falling, full curve]
`CC(=O)Nc1cc2c(cc1NC(=O)Cn1nc(-c3ccccc3F)ccc1=O)OCCO2` is listed as AC50 [1]: 8.91 µM [rising, partial curve]; AC50 [2]: 11.2 µM [rising, partial curve, poor fit]
`Brc1ccc(C=Nc2ccc(Nc3ccccc3)cc2)s1` is listed as AC50 [2]: 14.1 µM [rising, partial curve]
